Assay results reported in US11713341B1, “Antimicrobial NCR13 variant peptides” (Vestaron Corporation, priority 2022, dated 2023).
Where a SMILES comes first, the peptide text is derived from it.

Test system: Botrytis cinerea
Assay: Antimicrobial bioassay (Botrytis cinerea): growth inhibition by OD600
Assay type: cell-based
Details: relative to NCR13a; for COG Improvement: COG = Cost of goods, yield improvement times the activity improvement; for overall improvement: combining the yield improvement and activity improvement
Protocol: The antimicrobial effect of the NCR13 variant peptides (NVPs) of the present disclosure were evaluated against the fungal species, Botrytis cinerea. […] The growth of Botrytis cinerea was then assessed via OD600 nm after incubation with a given NVP at room temperature after 96 hours. The IC50 of each peptide analyzed is shown in ppm.
The antimicrobial effect of the NCR13 variant peptides (NVPs) of the present disclosure were evaluated against the fungal species, Botrytis cinerea. […] The growth of Botrytis cinerea was then assessed via OD600 nm after incubation with a given NVP at room temperature after 96 hours.
The NVPs assessed were as follows: NVPM3 (+L) (SEQ ID NO: 5); NVPM5 (+M) (SEQ ID NO: 7); NVPM6 (+F) (SEQ ID NO: 8); NVPM7 (+W) (SEQ ID NO: 9); NVPM9 (+S) (SEQ ID NO: 11); NVPM11 (+Y) (SEQ ID NO: 13); NVPM14 (+D) (SEQ ID NO: 16); and NVPM15 (+E) (SEQ ID NO: 17).
NVPs having an amino acid sequence of SEQ ID NOs: 5, 7, 8, 9, 11, 13, 16, and 17 were generated as described above in Example 1. The peptide, NCR13a, having an amino acid sequence of: […] (SEQ ID NO: 2) was selected as a comparator peptide, with which the antifungal activity of the foregoing NVPs was compared.
The fungal species was Botrytis cinerea was cultured in potato dextrose agar plates. Fungal spores were collected from the agar plates and suspended into de-ionized water, followed by enumeration in a Petroff-Hausser counting chamber (VWR).
The 96-well plates were incubated at room temperature for 96 hours without shaking. The OD600 of the culture plate was determined using SpectraMax plate reader. Relative OD600 was determined by normalizing cell growth to control wells containing neither NVPs nor NCR13a. The OD600 was used to determine IC50.

Compound | COG Improvement | overall improvement
CC[C@H](C)[C@H](NC(=O)[C@H](CS)NC(=O)[C@H](CCCCN)NC(=O)[C@@H]1CCCN1C(=O)[C@@H](NC(=O)[C@H](CCCCN)NC(=O)[C@@H]1CCCN1C(=O)[C@H](CCCCN)NC(=O)[C@H](CCCNC(=N)N)NC(=O)[C@H](CS)NC(=O)[C@H](C)NC(=O)[C@H](Cc1ccccc1)NC(=O)[C@H](CCCCN)NC(=O)[C@H](CCCCN)NC(=O)[C@H](CS)NC(=O)[C@H](CC(=O)O)NC(=O)[C@H](CCCCN)NC(=O)[C@H](CC(=O)O)NC(=O)[C@H](CO)NC(=O)[C@H](CCC(N)=O)NC(=O)[C@H](CS)NC(=O)[C@@H]1CCCN1C(=O)[C@H](CCCCN)NC(=O)[C@@H](NC(=O)CN)[C@@H](C)O)C(C)C)C(=O)N[C@@H](CC(N)=O)C(=O)NCC(=O)N[C@@H](Cc1ccccc1)C(=O)N[C@@H](CS)C(=O)N[C@@H](CCCCN)C(=O)N[C@@H](CS)C(=O)N[C@H](C(=O)N[C@@H](CCCNC(=N)N)C(=O)O)C(C)C [NCR13a, reference compound] (H-GTKPCQSDKDCKKFACRKPKVPKCINGFCKCVR-OH; N-terminus and C-terminus assumed) | 1 | 
CC[C@H](C)[C@H](NC(=O)[C@H](CS)NC(=O)[C@H](CCCCN)NC(=O)[C@@H]1CCCN1C(=O)[C@@H](NC(=O)[C@H](CCCCN)NC(=O)[C@@H]1CCCN1C(=O)[C@H](CCCCN)NC(=O)[C@H](CCCNC(=N)N)NC(=O)[C@H](CS)NC(=O)[C@H](C)NC(=O)[C@H](Cc1ccccc1)NC(=O)[C@H](CCCCN)NC(=O)[C@H](CCCCN)NC(=O)[C@H](CS)NC(=O)[C@H](CC(=O)O)NC(=O)[C@H](CCCCN)NC(=O)[C@H](CC(=O)O)NC(=O)[C@H](CO)NC(=O)[C@H](CCC(N)=O)NC(=O)[C@H](CS)NC(=O)[C@@H]1CCCN1C(=O)[C@H](CCCCN)NC(=O)[C@@H](NC(=O)[C@H](C)N)[C@@H](C)O)C(C)C)C(=O)N[C@@H](CC(N)=O)C(=O)NCC(=O)N[C@@H](Cc1ccccc1)C(=O)N[C@@H](CS)C(=O)N[C@@H](CCCCN)C(=O)N[C@@H](CS)C(=O)N[C@H](C(=O)N[C@@H](CCCNC(=N)N)C(=O)O)C(C)C [NVPM1] (H-ATKPCQSDKDCKKFACRKPKVPKCINGFCKCVR-OH; N-terminus and C-terminus assumed) | 2.16 | 
CC[C@H](C)[C@H](NC(=O)[C@H](CS)NC(=O)[C@H](CCCCN)NC(=O)[C@@H]1CCCN1C(=O)[C@@H](NC(=O)[C@H](CCCCN)NC(=O)[C@@H]1CCCN1C(=O)[C@H](CCCCN)NC(=O)[C@H](CCCNC(=N)N)NC(=O)[C@H](CS)NC(=O)[C@H](C)NC(=O)[C@H](Cc1ccccc1)NC(=O)[C@H](CCCCN)NC(=O)[C@H](CCCCN)NC(=O)[C@H](CS)NC(=O)[C@H](CC(=O)O)NC(=O)[C@H](CCCCN)NC(=O)[C@H](CC(=O)O)NC(=O)[C@H](CO)NC(=O)[C@H](CCC(N)=O)NC(=O)[C@H](CS)NC(=O)[C@@H]1CCCN1C(=O)[C@H](CCCCN)NC(=O)[C@@H](NC(=O)[C@@H](N)CC(C)C)[C@@H](C)O)C(C)C)C(=O)N[C@@H](CC(N)=O)C(=O)NCC(=O)N[C@@H](Cc1ccccc1)C(=O)N[C@@H](CS)C(=O)N[C@@H](CCCCN)C(=O)N[C@@H](CS)C(=O)N[C@H](C(=O)N[C@@H](CCCNC(=N)N)C(=O)O)C(C)C [NVPM3] (H-LTKPCQSDKDCKKFACRKPKVPKCINGFCKCVR-OH; N-terminus and C-terminus assumed) | 5.27 | 5.3 fold
CC[C@H](C)[C@H](NC(=O)[C@H](CS)NC(=O)[C@H](CCCCN)NC(=O)[C@@H]1CCCN1C(=O)[C@@H](NC(=O)[C@H](CCCCN)NC(=O)[C@@H]1CCCN1C(=O)[C@H](CCCCN)NC(=O)[C@H](CCCNC(=N)N)NC(=O)[C@H](CS)NC(=O)[C@H](C)NC(=O)[C@H](Cc1ccccc1)NC(=O)[C@H](CCCCN)NC(=O)[C@H](CCCCN)NC(=O)[C@H](CS)NC(=O)[C@H](CC(=O)O)NC(=O)[C@H](CCCCN)NC(=O)[C@H](CC(=O)O)NC(=O)[C@H](CO)NC(=O)[C@H](CCC(N)=O)NC(=O)[C@H](CS)NC(=O)[C@@H]1CCCN1C(=O)[C@H](CCCCN)NC(=O)[C@@H](NC(=O)[C@@H](N)CCSC)[C@@H](C)O)C(C)C)C(=O)N[C@@H](CC(N)=O)C(=O)NCC(=O)N[C@@H](Cc1ccccc1)C(=O)N[C@@H](CS)C(=O)N[C@@H](CCCCN)C(=O)N[C@@H](CS)C(=O)N[C@H](C(=O)N[C@@H](CCCNC(=N)N)C(=O)O)C(C)C [NVPM5] (H-MTKPCQSDKDCKKFACRKPKVPKCINGFCKCVR-OH; N-terminus and C-terminus assumed) | 3.73 | 
CC[C@H](C)[C@H](NC(=O)[C@H](CS)NC(=O)[C@H](CCCCN)NC(=O)[C@@H]1CCCN1C(=O)[C@@H](NC(=O)[C@H](CCCCN)NC(=O)[C@@H]1CCCN1C(=O)[C@H](CCCCN)NC(=O)[C@H](CCCNC(=N)N)NC(=O)[C@H](CS)NC(=O)[C@H](C)NC(=O)[C@H](Cc1ccccc1)NC(=O)[C@H](CCCCN)NC(=O)[C@H](CCCCN)NC(=O)[C@H](CS)NC(=O)[C@H](CC(=O)O)NC(=O)[C@H](CCCCN)NC(=O)[C@H](CC(=O)O)NC(=O)[C@H](CO)NC(=O)[C@H](CCC(N)=O)NC(=O)[C@H](CS)NC(=O)[C@@H]1CCCN1C(=O)[C@H](CCCCN)NC(=O)[C@@H](NC(=O)[C@@H](N)Cc1ccccc1)[C@@H](C)O)C(C)C)C(=O)N[C@@H](CC(N)=O)C(=O)NCC(=O)N[C@@H](Cc1ccccc1)C(=O)N[C@@H](CS)C(=O)N[C@@H](CCCCN)C(=O)N[C@@H](CS)C(=O)N[C@H](C(=O)N[C@@H](CCCNC(=N)N)C(=O)O)C(C)C [NVPM6] (H-FTKPCQSDKDCKKFACRKPKVPKCINGFCKCVR-OH; N-terminus and C-terminus assumed) | 2.3 | 
CC[C@H](C)[C@H](NC(=O)[C@H](CS)NC(=O)[C@H](CCCCN)NC(=O)[C@@H]1CCCN1C(=O)[C@@H](NC(=O)[C@H](CCCCN)NC(=O)[C@@H]1CCCN1C(=O)[C@H](CCCCN)NC(=O)[C@H](CCCNC(=N)N)NC(=O)[C@H](CS)NC(=O)[C@H](C)NC(=O)[C@H](Cc1ccccc1)NC(=O)[C@H](CCCCN)NC(=O)[C@H](CCCCN)NC(=O)[C@H](CS)NC(=O)[C@H](CC(=O)O)NC(=O)[C@H](CCCCN)NC(=O)[C@H](CC(=O)O)NC(=O)[C@H](CO)NC(=O)[C@H](CCC(N)=O)NC(=O)[C@H](CS)NC(=O)[C@@H]1CCCN1C(=O)[C@H](CCCCN)NC(=O)[C@@H](NC(=O)[C@@H](N)Cc1c[nH]c2ccccc12)[C@@H](C)O)C(C)C)C(=O)N[C@@H](CC(N)=O)C(=O)NCC(=O)N[C@@H](Cc1ccccc1)C(=O)N[C@@H](CS)C(=O)N[C@@H](CCCCN)C(=O)N[C@@H](CS)C(=O)N[C@H](C(=O)N[C@@H](CCCNC(=N)N)C(=O)O)C(C)C [NVPM7] (H-WTKPCQSDKDCKKFACRKPKVPKCINGFCKCVR-OH; N-terminus and C-terminus assumed) | 4.46 | 4.5 fold
CC[C@H](C)[C@H](NC(=O)[C@H](CS)NC(=O)[C@H](CCCCN)NC(=O)[C@@H]1CCCN1C(=O)[C@@H](NC(=O)[C@H](CCCCN)NC(=O)[C@@H]1CCCN1C(=O)[C@H](CCCCN)NC(=O)[C@H](CCCNC(=N)N)NC(=O)[C@H](CS)NC(=O)[C@H](C)NC(=O)[C@H](Cc1ccccc1)NC(=O)[C@H](CCCCN)NC(=O)[C@H](CCCCN)NC(=O)[C@H](CS)NC(=O)[C@H](CC(=O)O)NC(=O)[C@H](CCCCN)NC(=O)[C@H](CC(=O)O)NC(=O)[C@H](CO)NC(=O)[C@H](CCC(N)=O)NC(=O)[C@H](CS)NC(=O)[C@@H]1CCCN1C(=O)[C@H](CCCCN)NC(=O)[C@@H](NC(=O)[C@@H](N)CO)[C@@H](C)O)C(C)C)C(=O)N[C@@H](CC(N)=O)C(=O)NCC(=O)N[C@@H](Cc1ccccc1)C(=O)N[C@@H](CS)C(=O)N[C@@H](CCCCN)C(=O)N[C@@H](CS)C(=O)N[C@H](C(=O)N[C@@H](CCCNC(=N)N)C(=O)O)C(C)C [NVPM9] (H-STKPCQSDKDCKKFACRKPKVPKCINGFCKCVR-OH; N-terminus and C-terminus assumed) | 1.78 | 
CC[C@H](C)[C@H](NC(=O)[C@H](CS)NC(=O)[C@H](CCCCN)NC(=O)[C@@H]1CCCN1C(=O)[C@@H](NC(=O)[C@H](CCCCN)NC(=O)[C@@H]1CCCN1C(=O)[C@H](CCCCN)NC(=O)[C@H](CCCNC(=N)N)NC(=O)[C@H](CS)NC(=O)[C@H](C)NC(=O)[C@H](Cc1ccccc1)NC(=O)[C@H](CCCCN)NC(=O)[C@H](CCCCN)NC(=O)[C@H](CS)NC(=O)[C@H](CC(=O)O)NC(=O)[C@H](CCCCN)NC(=O)[C@H](CC(=O)O)NC(=O)[C@H](CO)NC(=O)[C@H](CCC(N)=O)NC(=O)[C@H](CS)NC(=O)[C@@H]1CCCN1C(=O)[C@H](CCCCN)NC(=O)[C@@H](NC(=O)[C@@H](N)Cc1ccc(O)cc1)[C@@H](C)O)C(C)C)C(=O)N[C@@H](CC(N)=O)C(=O)NCC(=O)N[C@@H](Cc1ccccc1)C(=O)N[C@@H](CS)C(=O)N[C@@H](CCCCN)C(=O)N[C@@H](CS)C(=O)N[C@H](C(=O)N[C@@H](CCCNC(=N)N)C(=O)O)C(C)C [NVPM11] (H-YTKPCQSDKDCKKFACRKPKVPKCINGFCKCVR-OH; N-terminus and C-terminus assumed) | 2.5 | 
